# For at least one compound, name, drawing or mass did not settle the structure.
# Tested on: human KLF5 promoter
# Assay: KLF5 promoter activity luciferase assay in DLD-1/pGL4.18hKLF5p cells
# Assay type: cell-based
# Conditions: Table 2
# Procedure: To examine the impact of these compounds on viability of CRC cell lines, we performed cell proliferation and cell growth assays using DLD-1 and HCT116 CRC cells. […] KLF5 promoter activity assay. DLD-1/pGL4.18hKLF5p cells were seeded in 96 well plate format and treated with DMSO or with test compounds dissolved in DMSO in the range of 0.001 to 20 μM final concentration for 24 h and the human KLF5 promoter activity was determined with the ONE-Glo luciferase assay system (Promega) using a SpectramMax M3 (Molecular Devices) plate reader. The IC50 values were calculated using GraphPad Prism version 5.00 for Windows (GraphPad Software) (22).
smiles,measurement,value
"CS(=O)(=O)N1CCC(CNC(=O)CNC(=O)/C=C/c2cccc(Cl)c2)C1 (stereo not shown) [Example 5, (E)-3-(3-chlorophenyl)-N-(2-(((1-(methylsulfonyl)pyrrolidin-3-yl)methyl)amino)-2-oxoethyl)acrylamide]",Approximate potency (EC50 · mol/L) (luciferase),Not converged
